{
  "source": "the supplement of paper PMC4604168 (melanoma cell lines)",
  "note": "The list shows a part of the results. Many values rest on one well or one pass, so single values are uncertain.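 Cells were imaged in 1,536-well plates, and nuclei stained with an antibody against cleaved PARP were counted against all DNA-stained nuclei to give the apoptosis fraction. Screening doses were chosen to leave most cells alive, and resting and induced cleaved-PARP levels differ strongly between cell lines.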",
  "data": [
    {"test_system": "COLO829", "experiment": "cleaved PARP positive nuclei fraction relative to DMSO control; melanoma cells; higher = more apoptosis", "conditions": "library dose: low library concentration; 72 h", "units": {"cleaved PARP positive nuclei fraction": "%"}, "values": [
      {"compound": "O=C(Nc1ccccc1)c1cc([N+](=O)[O-])ccc1Cl", "note": "+ CCN(CC)CCCCNc1ncc2cc(-c3cc(OC)cc(OC)c3)c(NC(=O)NC(C)(C)C)nc2n1 [PD173074] (first compound 2 µM, partner dose 0.1 µM)", "cleaved PARP positive nuclei fraction": 139},
      {"compound": "N#Cc1c(O)c2c(-c3ccc(-c4ccccc4O)cc3)csc2[nH]c1=O", "note": "+ O=C(O)C(=O)Nc1sc2c(c1C(=O)O)CCNC2 [TCS401] (first compound 2 µM, partner dose 1.66667 µM)", "cleaved PARP positive nuclei fraction": 114},
      {"compound": "NCC(=O)Nc1ccc(-n2nc(C(F)(F)F)cc2-c2ccc3c(ccc4ccccc43)c2)cc1", "note": "+ Cc1cc([N+](=O)[O-])ccc1NS(=O)(=O)c1cc(Cl)ccc1Cl [FH535] (first compound 1 µM, partner dose 1 µM)", "cleaved PARP positive nuclei fraction": 48.8},
      {"compound": "CCc1ccc(CCOc2ccc(CC3SC(=O)NC3=O)cc2)nc1", "note": "(stereo not given) [pioglitazone] + CCCCCCCCCCCC1=C(O)C(=O)C=C(O)C1=O [Embelin] (first compound 2 µM, partner dose 1.2 µM)", "cleaved PARP positive nuclei fraction": 95.9},
      {"compound": "Oc1nc(-c2ccc(C(F)(F)F)cc2)nc2c1CSCC2", "note": "+ CCCCCCCCCCCC1=C(O)C(=O)C=C(O)C1=O [Embelin] (first compound 2 µM, partner dose 1.2 µM)", "cleaved PARP positive nuclei fraction": 97.6},
      {"compound": "Cc1cc([N+](=O)[O-])ccc1NS(=O)(=O)c1cc(Cl)ccc1Cl", "note": "+ COc1cc(N2CCC(N3CCN(C)CC3)CC2)ccc1Nc1ncc(Cl)c(Nc2ccccc2S(=O)(=O)C(C)C)n1 [NVP-TAE684] (first compound 1 µM, partner dose 0.08 µM)", "cleaved PARP positive nuclei fraction": 55.5},
      {"compound": "COc1cc2ncnc(Nc3ccc(Oc4ccccc4)cc3)c2cc1OC", "note": "+ Cn1cc(/C=C2\\C(=O)Nc3cccnc32)c2ccccc21 [GW441756] (first compound 2 µM, partner dose 0.4 µM)", "cleaved PARP positive nuclei fraction": 50.8},
      {"compound": "CN(C)S(=O)(=O)c1ccc2c(c1)/C(=C/c1cc3c([nH]1)CCCC3)C(=O)N2", "note": "+ O=C1NC(=O)/C(=C/c2ccc(-c3ccc(F)cc3O)o2)S1 [AS252424] (first compound 0.4 µM, partner dose 1 µM)", "cleaved PARP positive nuclei fraction": 131},
      {"compound": "COc1cc2ncnc(Nc3ccc(Oc4ccccc4)cc3)c2cc1OC", "note": "+ CCCCCCCCCCCC1=C(O)C(=O)C=C(O)C1=O [Embelin] (first compound 2 µM, partner dose 1.2 µM)", "cleaved PARP positive nuclei fraction": 71.8},
      {"compound": "O=C(O)c1ccc(-c2c[nH]c3ncc(-c4ccccc4)cc23)cc1C1CCCC1", "note": "+ COc1cc2ncnc(Nc3ccc(Oc4ccccc4)cc3)c2cc1OC [SrcI1] (first compound 0.16 µM, partner dose 2 µM)", "cleaved PARP positive nuclei fraction": 59.8},
      {"compound": "NCC(=O)Nc1ccc(-n2nc(C(F)(F)F)cc2-c2ccc3c(ccc4ccccc43)c2)cc1", "note": "+ Oc1cc(-c2nc(-c3ccccc3)[nH]c2-c2ccncc2)ccc1Cl [L779450] (first compound 1 µM, partner dose 0.2 µM)", "cleaved PARP positive nuclei fraction": 31.2},
      {"compound": "COc1cc2c(Oc3ccc4[nH]c(C)cc4c3F)ncnc2cc1OCCCN1CCCC1", "note": "[cediranib] + O=C1NC(=O)/C(=C/c2ccc(-c3ccc(F)cc3O)o2)S1 [AS252424] (first compound 0.4 µM, partner dose 1 µM)", "cleaved PARP positive nuclei fraction": 87.9},
      {"compound": "CN(C)S(=O)(=O)c1ccc2c(c1)/C(=C/c1cc3c([nH]1)CCCC3)C(=O)N2", "note": "+ Cn1cc(/C=C2\\C(=O)Nc3cccnc32)c2ccccc21 [GW441756] (first compound 0.4 µM, partner dose 0.4 µM)", "cleaved PARP positive nuclei fraction": 43.2},
      {"compound": "N#Cc1c(O)c2c(-c3ccc(-c4ccccc4O)cc3)csc2[nH]c1=O", "note": "+ Cn1cc(/C=C2\\C(=O)Nc3cccnc32)c2ccccc21 [GW441756] (first compound 2 µM, partner dose 0.4 µM)", "cleaved PARP positive nuclei fraction": 81.3},
      {"compound": "O=C(Nc1ccccc1)c1cc([N+](=O)[O-])ccc1Cl", "note": "+ CCCCCCCCCCCC1=C(O)C(=O)C=C(O)C1=O [Embelin] (first compound 2 µM, partner dose 1.2 µM)", "cleaved PARP positive nuclei fraction": 53},
      {"compound": "CCc1ccc(CCOc2ccc(CC3SC(=O)NC3=O)cc2)nc1", "note": "(stereo not given) [pioglitazone] + O=C(Nc1ccccc1)c1cc([N+](=O)[O-])ccc1Cl [GW9662] (first compound 2 µM, partner dose 2 µM)", "cleaved PARP positive nuclei fraction": 90},
      {"compound": "COc1ccc2c(c1)CCC1C2CCC2(C)C(NCCCCCCN3C(=O)C=CC3=O)CCC12", "note": "(stereo not given) + CCCCCCCCCCCC1=C(O)C(=O)C=C(O)C1=O [Embelin] (first compound 0.4 µM, partner dose 1.2 µM)", "cleaved PARP positive nuclei fraction": 63},
      {"compound": "Oc1cc(-c2nc(-c3ccccc3)[nH]c2-c2ccncc2)ccc1Cl", "note": "+ CCCCCCCCCCCC1=C(O)C(=O)C=C(O)C1=O [Embelin] (first compound 0.2 µM, partner dose 1.2 µM)", "cleaved PARP positive nuclei fraction": 108},
      {"compound": "Oc1cc(-c2nc(-c3ccccc3)[nH]c2-c2ccncc2)ccc1Cl", "note": "+ Cc1cc([N+](=O)[O-])ccc1NS(=O)(=O)c1cc(Cl)ccc1Cl [FH535] (first compound 0.2 µM, partner dose 1 µM)", "cleaved PARP positive nuclei fraction": 72.5},
      {"compound": "COc1cc2c(Oc3ccc4[nH]c(C)cc4c3F)ncnc2cc1OCCCN1CCCC1", "note": "[cediranib] + CCCCCCCCCCCC1=C(O)C(=O)C=C(O)C1=O [Embelin] (first compound 0.4 µM, partner dose 1.2 µM)", "cleaved PARP positive nuclei fraction": 70.6},
      {"compound": "NCC(=O)Nc1ccc(-n2nc(C(F)(F)F)cc2-c2ccc3c(ccc4ccccc43)c2)cc1", "note": "+ Cn1cc(/C=C2\\C(=O)Nc3cccnc32)c2ccccc21 [GW441756] (first compound 1 µM, partner dose 0.4 µM)", "cleaved PARP positive nuclei fraction": 137},
      {"compound": "Oc1nc(-c2ccc(C(F)(F)F)cc2)nc2c1CSCC2", "note": "+ O=c1cc(-c2cccc3c2Sc2ccccc2S3)oc(N2CCOCC2)c1 [KU55933] (first compound 2 µM, partner dose 1 µM)", "cleaved PARP positive nuclei fraction": 57.2},
      {"compound": "O=C(O)C(=O)Nc1sc2c(c1C(=O)O)CCNC2", "note": "+ O=C1NC(=O)/C(=C/c2ccc(-c3ccc(F)cc3O)o2)S1 [AS252424] (first compound 1.66667 µM, partner dose 1 µM)", "cleaved PARP positive nuclei fraction": 85.7},
      {"compound": "COC(=O)c1sccc1S(=O)(=O)Nc1ccc(Nc2ccccc2)cc1OC", "note": "+ COc1cc(N2CCC(N3CCN(C)CC3)CC2)ccc1Nc1ncc(Cl)c(Nc2ccccc2S(=O)(=O)C(C)C)n1 [NVP-TAE684] (first compound 1 µM, partner dose 0.08 µM)", "cleaved PARP positive nuclei fraction": 129},
      {"compound": "NCC(=O)Nc1ccc(-n2nc(C(F)(F)F)cc2-c2ccc3c(ccc4ccccc43)c2)cc1", "note": "+ COc1ccc(-c2ccc3c(N4CCOCC4)nc(N4C[C@@H](C)O[C@@H](C)C4)nc3n2)cc1CO [KU0063794] (first compound 1 µM, partner dose 0.02 µM)", "cleaved PARP positive nuclei fraction": 116},
      {"compound": "CN(C)S(=O)(=O)c1ccc2c(c1)/C(=C/c1cc3c([nH]1)CCCC3)C(=O)N2", "note": "+ N#Cc1c(O)c2c(-c3ccc(-c4ccccc4O)cc3)csc2[nH]c1=O [A769662] (first compound 0.4 µM, partner dose 2 µM)", "cleaved PARP positive nuclei fraction": 111},
      {"compound": "CN(C)S(=O)(=O)c1ccc2c(c1)/C(=C/c1cc3c([nH]1)CCCC3)C(=O)N2", "note": "+ Oc1nc(-c2ccc(C(F)(F)F)cc2)nc2c1CSCC2 [XAV939] (first compound 0.4 µM, partner dose 2 µM)", "cleaved PARP positive nuclei fraction": 96.1},
      {"compound": "COc1cc2ncnc(Nc3ccc(Oc4ccccc4)cc3)c2cc1OC", "note": "+ Oc1cc(-c2nc(-c3ccccc3)[nH]c2-c2ccncc2)ccc1Cl [L779450] (first compound 2 µM, partner dose 0.2 µM)", "cleaved PARP positive nuclei fraction": 41.1},
      {"compound": "NCC(=O)Nc1ccc(-n2nc(C(F)(F)F)cc2-c2ccc3c(ccc4ccccc43)c2)cc1", "note": "+ CCCCCCCCCCCC1=C(O)C(=O)C=C(O)C1=O [Embelin] (first compound 1 µM, partner dose 1.2 µM)", "cleaved PARP positive nuclei fraction": 120},
      {"compound": "COc1cc2ncnc(Nc3ccc(Oc4ccccc4)cc3)c2cc1OC", "note": "+ c1cc(-c2cnn3cc(-c4ccc(OCCN5CCCCC5)cc4)cnc23)ccn1 [Dorsomorphin] (first compound 2 µM, partner dose 0.4 µM)", "cleaved PARP positive nuclei fraction": 100}
    ]}
  ]
}
